The test deals with T1, IgE peptide … (SEQ ID NO:35) (human).
T1 sequence (peptide): YQCRVTHPHLPRALM
Description: Pepscan peptide array, linear and single loop mimics.

Data on two molecules can be found in patent US20230090487A1.

Positions count from the first letter of the chain named. These are yes or no findings as the source states them, for the method shown. Some results given as binding are weak or reduced against the parent protein; the word gives no strength.

B1: hLAAIGE E17 (antibody, human IgG1, kappa, V domains shown)
VH: QVQLVQSGSELKKPGASVKVSCKASGYTFTNYGMNWVRQAPGQGLEWMGWINTYTGEPTYADDFKGRFVFSLDTSVSTAYLQISSLKAEDTAVYYCARGAASHTMDYWGQGTTVTVSS
VL: DIVMTQSPDSLAVSLGERATINCRASQSVSTSSHAYMHWYQQKPGQPPKLLIYYASNLESGVPDRFSGSGSGTDFTLTISSLQAEDVAVYYCQHSWEIPWTFGQGTKLEIKR
Regarding B1, the binding result is “binds”.

B2: hLAAIGE E59 (antibody, human IgG1, kappa, V domains shown)
VH: B1 VH
VL: B1 VL with A35S
Regarding B2, the binding result was “binds”.
